Laboratory results published in patent US12479827B2, “Heteroaromatic carboxamide derivatives as plasma kallikrein inhibitors” (Boehringer Ingelheim International GmbH, priority 2020, dated 2025).
Counter-ions that a name gives are not always drawn. Not every detail of the peptide structures is certain; ends, links or a residue may be inferred. Peptide text beside a SMILES is read from it. * marks the point of attachment. AMC = Cc1cc(=O)oc2cc(N*)ccc12; Boc = CC(C)(C)OC(=O)*; OBn = c1ccc(CO*)cc1

Chains of the proteins cited; added tags and fusions are not shown. Residues count along the entry.
UniProt P03951, 19-387 limits assumed: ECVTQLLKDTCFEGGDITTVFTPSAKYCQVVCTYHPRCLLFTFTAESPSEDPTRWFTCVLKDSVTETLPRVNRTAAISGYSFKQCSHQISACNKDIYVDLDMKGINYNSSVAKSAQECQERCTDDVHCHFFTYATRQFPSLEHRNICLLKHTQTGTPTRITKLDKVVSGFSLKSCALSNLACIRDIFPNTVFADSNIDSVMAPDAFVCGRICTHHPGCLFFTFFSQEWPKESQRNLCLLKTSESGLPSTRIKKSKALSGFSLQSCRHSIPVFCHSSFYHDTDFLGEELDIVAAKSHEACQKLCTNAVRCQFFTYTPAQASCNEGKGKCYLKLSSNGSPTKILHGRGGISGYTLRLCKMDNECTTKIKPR
UniProt P03951, 388-625 limits assumed: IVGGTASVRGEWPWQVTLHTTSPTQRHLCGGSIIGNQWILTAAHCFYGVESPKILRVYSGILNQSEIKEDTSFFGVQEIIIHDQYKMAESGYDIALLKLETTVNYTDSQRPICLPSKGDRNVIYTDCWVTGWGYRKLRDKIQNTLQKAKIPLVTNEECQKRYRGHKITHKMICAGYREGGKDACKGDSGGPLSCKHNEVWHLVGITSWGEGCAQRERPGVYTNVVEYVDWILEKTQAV

Target: T1, Human FXIa (Homo sapiens, UniProt P03951)
T1 construct: Factor XIa (FXIa); purchased Enzyme Research Laboratories
Experiment: Inhibition of FXIa (Ki)
Assay type: biochemical
Details: substrate KM, enzyme FXIa

For Cc1cc(=O)oc2cc(NC(=O)[C@H](CCCNC(=N)N)NC(=O)[C@H](C)NC(=O)[C@H](CCC(=O)OCc3ccccc3)NC(=O)OC(C)(C)C)ccc12 [Example I1575, Boc-Glu(OBzl)-Ala-Arg-AMC·HCl] (Boc-Glu(OBn)-Ala-Arg-{AMC}), the Km was 290 µM.
